The target in one assay is mP2X7 (Mus musculus (Mouse), UniProt Q9Z1M0). Briefly: mP2X7 channel calcium-influx assay (Fluo-8 NW, FLIPR TETRA, Bz-ATP stimulation). To be noted: read-out: mP2X7 IC50. The method, then:
(§1) Extracellular binding of Bz-ATP to P2X7 receptor opens the channel and allows Ca^2+ influx into the cells. This Ca^2+ entry was measured in HEK-293 cells stably transfected with P2X7 receptor using Screen Quest™ Fluo-8 No Wash Calcium Assay Kit (AAt Bioquest®, cat. 36316). Once inside the cell, the lipophilic blocking groups of Fluo-8 are cleaved by non-specific cell esterases, resulting in a negatively-charged fluorescent dye that stays inside cells. Its fluorescence increases upon binding to calcium. When HEK-293/P2X7 cells are stimulated with Bz-ATP, Ca^2+ enters the cells and the fluorescence of Fluo-8 NW increases. The dye has an absorption spectrum compatible with excitation at 488 nm by argon laser sources and its emission wavelength is in the range of 515-575 nm.
(§2) HEK-293 cells stably transfected with P2X7 receptor were seeded overnight in growth medium at 10,000 to 20,000 cells/well in 384-well plate. 24 hours later, the medium was removed, and the cells were pre-loaded at RT for 1 hour with 20 μL/w of Fluo-8 NW. Then 10 μL/w of test compounds and reference antagonist A438079 at 3X-concentration were injected with the FLIPRTETRA and the kinetic response over a period of five minutes was monitored. […]

Sequences of proteins named here, by UniProt entry; tags and fusion partners are left off.
UniProt Q9Z1M0, whole entry: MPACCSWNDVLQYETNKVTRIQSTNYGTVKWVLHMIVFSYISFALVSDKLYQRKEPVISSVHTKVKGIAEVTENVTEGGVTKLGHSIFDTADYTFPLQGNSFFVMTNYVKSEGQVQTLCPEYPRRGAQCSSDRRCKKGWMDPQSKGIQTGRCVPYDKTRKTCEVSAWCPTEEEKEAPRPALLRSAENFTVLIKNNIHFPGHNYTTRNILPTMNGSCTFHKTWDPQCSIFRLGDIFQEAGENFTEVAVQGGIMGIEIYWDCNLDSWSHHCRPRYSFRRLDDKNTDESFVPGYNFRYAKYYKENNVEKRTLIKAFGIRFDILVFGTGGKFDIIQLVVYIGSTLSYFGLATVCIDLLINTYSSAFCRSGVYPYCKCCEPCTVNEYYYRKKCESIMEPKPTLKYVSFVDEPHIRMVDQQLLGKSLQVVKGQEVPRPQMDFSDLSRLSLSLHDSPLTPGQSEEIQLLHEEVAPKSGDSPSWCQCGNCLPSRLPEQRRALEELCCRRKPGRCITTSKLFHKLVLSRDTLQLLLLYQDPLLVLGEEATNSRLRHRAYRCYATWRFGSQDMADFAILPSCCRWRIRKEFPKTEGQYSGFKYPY
UniProt Q99572, whole entry: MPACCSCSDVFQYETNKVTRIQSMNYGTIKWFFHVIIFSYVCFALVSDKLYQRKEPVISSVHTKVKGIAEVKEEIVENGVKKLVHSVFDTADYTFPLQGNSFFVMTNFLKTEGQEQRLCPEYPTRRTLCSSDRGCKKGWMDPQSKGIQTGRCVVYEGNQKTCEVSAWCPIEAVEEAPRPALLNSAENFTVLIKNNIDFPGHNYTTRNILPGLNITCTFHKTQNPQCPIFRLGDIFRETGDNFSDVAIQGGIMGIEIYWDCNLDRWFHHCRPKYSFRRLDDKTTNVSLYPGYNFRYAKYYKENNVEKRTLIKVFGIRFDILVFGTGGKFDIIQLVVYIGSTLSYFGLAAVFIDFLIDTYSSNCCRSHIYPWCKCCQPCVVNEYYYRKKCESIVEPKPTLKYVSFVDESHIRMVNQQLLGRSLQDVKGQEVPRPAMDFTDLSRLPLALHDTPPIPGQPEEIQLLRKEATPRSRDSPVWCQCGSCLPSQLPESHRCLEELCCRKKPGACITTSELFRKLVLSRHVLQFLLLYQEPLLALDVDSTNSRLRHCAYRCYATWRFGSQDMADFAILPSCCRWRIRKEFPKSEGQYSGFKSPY

The target of a further assay is P2X7 receptor (Homo sapiens (Human), UniProt Q99572). Briefly: Human P2X7 channel calcium-influx assay (Fluo-8 NW, FLIPR TETRA, Bz-ATP stimulation). To be noted: read-out: hP2X7 IC50, HEK-293 cells stably transfected with P2X7 receptor, Low Divalent Cation Assay Buffer. The method, then: as §1, §2

SMILES strings stand for the structures. The match of structure and compound is tentative.

A word on the IC50: it is the concentration needed to halve the response being measured. In the case of `O=C(NCC(c1scnc1C(F)F)N1CCC(Oc2nncc3ccccc23)CC1)c1c(F)cccc1Cl` (centres unmarked), the figures for the IC50 at mP2X7 and at P2X7 receptor were 24.6 nM and 16.6 nM, respectively.

The values above are taken from US20240034737A1, “Heterocyclic Derivatives as P2X7 Receptor Antagonists” (BREYE THERAPEUTICS APS, priority 2020, published 2024).
